Holding throughout (test): affinity purification with mass spectrometry; purified GFP-3C-bait-3C-His6 immobilised on GFP binder beads, incubated with 6 mg Drosophila embryo nuclear extract in IP buffer (50 mM tris-Cl pH 7.5, 150 mM potassium acetate, 2 mM MgCl2, 10% glycerol, 0.1 mM DTT, 0.2% IGEPAL), 3 hours at 4°C; eluted with 3C protease; enrichment over a GFP-tagged Xenopus Nse I control bait; biological duplicates; only the target purified

The target of assay [1] is T1, GFP-tagged CTCF[1-293] (N terminus) (GFP-3C-bait-3C-His6) (D. melanogaster) (UniProt Q9VS55).
T1 sequence: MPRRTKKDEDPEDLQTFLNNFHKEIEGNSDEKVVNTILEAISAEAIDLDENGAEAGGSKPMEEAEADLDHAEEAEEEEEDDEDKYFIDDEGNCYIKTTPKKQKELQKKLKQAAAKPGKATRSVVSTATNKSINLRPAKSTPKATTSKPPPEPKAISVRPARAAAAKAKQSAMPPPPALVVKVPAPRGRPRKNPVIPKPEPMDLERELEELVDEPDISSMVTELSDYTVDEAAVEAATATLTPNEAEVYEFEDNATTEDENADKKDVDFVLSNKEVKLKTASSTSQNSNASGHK

Assay [2] has as its target T2, GFP-tagged full-length Cp190[1-1096] bait (GFP-3C-Cp190-3C-His6) (D. melanogaster) (UniProt Q24478).
T2 sequence: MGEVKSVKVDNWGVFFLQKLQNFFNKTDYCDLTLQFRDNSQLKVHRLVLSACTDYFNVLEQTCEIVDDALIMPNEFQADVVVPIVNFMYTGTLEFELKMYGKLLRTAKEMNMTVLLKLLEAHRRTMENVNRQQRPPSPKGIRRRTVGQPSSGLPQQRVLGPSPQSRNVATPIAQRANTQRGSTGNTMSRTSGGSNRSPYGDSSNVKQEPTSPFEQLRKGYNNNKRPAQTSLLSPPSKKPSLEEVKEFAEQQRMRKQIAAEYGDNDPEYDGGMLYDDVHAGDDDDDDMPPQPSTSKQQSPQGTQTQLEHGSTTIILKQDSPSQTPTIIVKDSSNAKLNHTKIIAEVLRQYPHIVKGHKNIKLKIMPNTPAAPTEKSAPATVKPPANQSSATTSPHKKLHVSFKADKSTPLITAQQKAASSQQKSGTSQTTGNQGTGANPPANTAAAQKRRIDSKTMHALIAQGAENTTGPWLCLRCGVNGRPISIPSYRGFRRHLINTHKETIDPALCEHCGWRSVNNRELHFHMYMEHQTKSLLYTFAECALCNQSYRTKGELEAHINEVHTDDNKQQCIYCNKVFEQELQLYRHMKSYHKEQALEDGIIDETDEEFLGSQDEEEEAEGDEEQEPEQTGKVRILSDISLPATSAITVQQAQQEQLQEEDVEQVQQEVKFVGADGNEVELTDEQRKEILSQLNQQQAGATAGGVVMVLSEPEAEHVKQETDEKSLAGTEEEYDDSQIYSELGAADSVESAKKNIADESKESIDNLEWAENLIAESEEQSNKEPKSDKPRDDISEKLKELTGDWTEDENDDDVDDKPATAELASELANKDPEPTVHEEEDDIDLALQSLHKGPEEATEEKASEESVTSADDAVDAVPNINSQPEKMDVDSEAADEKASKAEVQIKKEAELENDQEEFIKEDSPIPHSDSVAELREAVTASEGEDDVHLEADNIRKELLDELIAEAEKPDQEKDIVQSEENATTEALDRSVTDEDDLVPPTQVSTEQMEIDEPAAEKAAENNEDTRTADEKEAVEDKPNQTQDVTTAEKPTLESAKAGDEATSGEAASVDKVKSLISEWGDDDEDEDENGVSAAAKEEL

In assay [3] the target is T3, GFP-tagged Su(Hw)[1-219] (N terminus) (GFP-3C-bait-3C-His6) (D. melanogaster) (UniProt P08970).
T3 sequence: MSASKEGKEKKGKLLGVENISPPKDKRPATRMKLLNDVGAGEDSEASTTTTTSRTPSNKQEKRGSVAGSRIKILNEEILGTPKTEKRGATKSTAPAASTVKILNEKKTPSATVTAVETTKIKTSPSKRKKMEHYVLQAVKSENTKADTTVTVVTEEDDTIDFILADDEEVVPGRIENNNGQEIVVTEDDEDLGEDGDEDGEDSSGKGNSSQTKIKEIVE

Results are given in words; binding and its absence hold for the method and conditions named. Binding seen in cells or lysates may run through a third protein. These calls come from enrichment with a bait or labelling near it, and not all partners need be listed. Sequences can lack the tags named with a protein.

The text below walks through data of paper PMC9106302.

As to SA (cohesin subunit), endogenous, the binding result in assay [1] and in assay [2] was “binds” each time.
For SMC1 (cohesin subunit), endogenous, the binding result in assay [2] is “binds”.
Same read-out and setting: the result for SMC3 (cohesin subunit), endogenous reads “binds”.
Take vtd (cohesin subunit), endogenous: the binding entry in assay [1] and in assay [2] was “binds” throughout.

B1: Ibf1 (insulator binding factor 1), endogenous (protein, UniProt Q9VHG5 1-242)
chain: MPRKKSEDFYRTHGFTANLENGKYSATCHFCEKVLQNTALSRLSLHRQTCDARRSRSAVVYTSADEKDHDEAPRIKIQKISGDDDGGLDNANEGKEIIVKIQQILDDADEAEAPKEQPRVKREIRKRKLTKTEESGEQNLEFEISNVEIKNPEYSEYLDESKEHYILQQNPDDLANGSATIIEARPRNGLAALRAEKARAEISQFQSKTKFLKTETDNLKVERTLTLLKIQKLRLEIDALRD
In the case of B1, the binding result in assay [2] was “binds”.

B2: pita, endogenous (protein, UniProt Q95RQ8 1-683)
chain: MAAKLEVREAMLTEKRVCRFCLTEQKLASIFEENPRVKTTANLPLQIMAITAIEVYAGDGMPGHICLECRLLFEHCYRFKQMCKRAETLLRQYPLTGNWPSPLEKPRAPMTMVASKKLLVVPAKTAEPSETPKKLLNTMAKSSSQVIIEDVQVLESAMVTPRTVAGSSPVPRRSHAYELKVDNNQELSMDDVQSMLEDMASELEKEFPDIPQKASPVKPKVLNKSSIRILNKGPAAPVEPRLATPKVKRDDSGNVAIVTEVLDSDLPLDDQDDPTKNAEKVATDVFPCPDCERSFPLQQLLEIHRLNHTRSRSFQCLLCEKSFFSKYDLAKHNFVHTGERPFKCAICSKAFTRKALLHRHERTHTDVPKFICVYCEKPFLSRQEMEKHAERHQKKRPFQCGVCTKSFAFKQGLERHETVHSTNLPFPCQHCERSFSTASKLARHLVAHAGKRAYPCKYCHKSYMLSHHLSRHLRTHTQTSDASFVCSECKVSYSNYNDLLDHALIHATASLKCPMCRKQIEDIDSVESHMDQHKQSERHACEFCDHIFLTQKCLQRHIEDDHVVEMEPYQNEFEDDGEGEGGVDEKEEHLDDFEDMDNVKQEEFVTEYLEDDALYEDHLDDSDESFTPPPPKQRKTNPPKDAQQSVRQTRSRDAQRITQKTGKNEGKPHHKLERNLKNRRSAK
For B2, the binding entry in assay [2] is reported as “binds”.

B3: CTCF, endogenous (protein, UniProt Q9VS55 1-818)
chain: MPRRTKKDEDPEDLQTFLNNFHKEIEGNSDEKVVNTILEAISAEAIDLDENGAEAGGSKPMEEAEADLDHAEEAEEEEEDDEDKYFIDDEGNCYIKTTPKKQKELQKKLKQAAAKPGKATRSVVSTATNKSINLRPAKSTPKATTSKPPPEPKAISVRPARAAAAKAKQSAMPPPPALVVKVPAPRGRPRKNPVIPKPEPMDLERELEELVDEPDISSMVTELSDYTVDEAAVEAATATLTPNEAEVYEFEDNATTEDENADKKDVDFVLSNKEVKLKTASSTSQNSNASGHKYSCPHCPYTASKKFLITRHSRSHDVEPSFKCSICERSFRSNVGLQNHINTHMGNKPHKCKLCESAFTTSGELVRHTRYKHTKEKPHKCTECTYASVELTKLRRHMTCHTGERPYQCPHCTYASQDMFKLKRHMVIHTGEKKYQCDICKSRFTQSNSLKAHKLIHSVVDKPVFQCNYCPTTCGRKADLRVHIKHMHTSDVPMTCRRCGQQLPDRYQYKLHVKSHEGEKCYSCKLCSYASVTQRHLASHMLIHLDEKPFHCDQCPQAFRQRQLLRRHMNLVHNEEYQPPEPREKLHKCPSCPREFTHKGNLMRHMETHDDSANAREKRRRLKLGRNVRLQKDGTVITLIKDQYVDMDRDQEENEEDDNPESYDLAEIEPENSEAEDADDDVETIVSDPIRQRIKPAPIIINKQARLAASEKQPMIINQRLRSQRGTKTFHIKEEPDNSDFTVEWQGDDGEVMVVELVNGDEEVLVKHEPSANSKISAKNCFGFEDDDDYEEYGDGENEVDGASQEFLQLMDMIEQDS
As for B3, the binding entry in assay [2] is “binds”.

B4: Ibf2, endogenous (protein, UniProt Q9VHG6 1-195)
chain: MSQAKKAKRPSGLSKDETWKKLGFLPAFKGGKDGEPKKYRALCTHCRKCQSNTSIDRLIIHRKSCLKFREDLTAEFGIKVEATDAAPAEQSSSGSTIDFTSNILLDKLIDEDDSSARNQESNLVSYLTDLDQLVIPSSDANRLQKDLIKAETEYLVVKSEYFTKMNEISELKRTVTLLEAKKTQLEIAKLRAECE
Regarding B4, the binding result in assay [2] is recorded as “binds”.

B5: ZIPIC (zinc-finger protein interacting with CP190), endogenous (protein, UniProt Q9VAB8 1-457)
chain: MNCCICQFSVRVPKDIHTDTVGHPPVLISELVLQCTRGTNYVLTEESSTICKKCCEKLARYHKSIQIARKLRGEILELIHSPYMSKDHKQTSYKEDDLDRETTISKFDGNIEEAQQQDEEEQELESVGTTVTLVGPAGIVEEVAEEEHTFIIKQSEEEDEFHSVDLELDIDNEIIINEEEAHEVEEVAHEIEEVAHEIEEEDLLPHDKQEAQEEDFFKEDTMSDFDEHLDGAIEYIISDGEDQEQDNESSGEYTVNIQCPSCPEKFSSRRAYNVHTKREHFPGYVCDQCGKTLQSYSGFIGHLQNHEPVKQFACPVCPERFSRKFRLKHHMAWHSGETPYQCDVCSKRFVHKVALYKHKMIHDSETKRLECQVCGFKTRTKAHLERHMRSHTGDKPFACPVCNKRFSQMYNMKAHLREHESPGTNRHRRFHCSKCTHTFINEQNYDAHVQRDDCTPV
For B5, in assay [2], the binding result was “binds”.

B6: Su(Hw) (suppressor of Hairy-Wing), endogenous (protein, UniProt P08970 1-941)
chain: MSASKEGKEKKGKLLGVENISPPKDKRPATRMKLLNDVGAGEDSEASTTTTTSRTPSNKQEKRGSVAGSRIKILNEEILGTPKTEKRGATKSTAPAASTVKILNEKKTPSATVTAVETTKIKTSPSKRKKMEHYVLQAVKSENTKADTTVTVVTEEDDTIDFILADDEEVVPGRIENNNGQEIVVTEDDEDLGEDGDEDGEDSSGKGNSSQTKIKEIVEHVCGKCYKTFRRVQSLKKHLEFCRYDSGYHLRKADMLKNLEKIEKDAVVMEKKDICFCCSESYDTFHLGHINCPDCPKSFKTQTSYERHIFITHSEFSDFPCSICNANLRSEALLALHEEQHKSRGKPYACKICGKDFTRSYHLKRHQKYSSCSSNETDTMSCKVCDRVFYRLDNLRSHLKQHLGTQVVKKPEYMCHTCKNCFYSLSTLNIHIRTHTGEKPFDCDLCDKKFSALVALKKHRRYHTGEKPYSCTVCNQAFAVKEVLNRHMKRHTGERPHKCDECGKSFIQATQLRTHSKTHIRPFPCEQCDEKFKTEKQLERHVKTHSRTKRPVFSCAECKRNFRTPALLKEHMDEGKHSPKQQRSSMRSAVKIMERTDCAICDKNFDSSDTLRRHIRTVHECDPDDIFGVEPHPSKRAKKDIESEEVVPVALNTSAGSLISSQTDGNGVVVREFLVDEGDGAAQTITLENETYTILPLDGAIEGEQLTDEAGVKPEAKKEEAQVSPVVKKEQRKSLAASLAAAIADNLEESCSEDDFSGEILTEEDIKLKENVGKLIDMLVDPPILKKYGWPNAPEETVLCKVIENCGHDLTKGGENYAELDYGSRMREYCKLLFTVVIHNDSIKSLLNNFPIDDVIEYVLGDEDQDEGGLDKDNESHSGDEEAVSVTGETKTNEIREKPEKKEVSAKSEKKEIVGKAVDKDNSEEVVRENKKKPVGEQEKA
For the molecule B6, the binding result in assay [3] and in assay [2] was “binds” throughout.
